Publication PMC8111302
These are yes or no findings as the source states them, for the method shown. Binding seen in cells or lysates may run through a third protein. Some entries that bind do so weakly or less than the wild type. Tags and fused reporters may be left off the sequences shown.

Molecular target: T1, HA-CHIP (hsc70-interacting protein), Q9UNE7
T1 chain: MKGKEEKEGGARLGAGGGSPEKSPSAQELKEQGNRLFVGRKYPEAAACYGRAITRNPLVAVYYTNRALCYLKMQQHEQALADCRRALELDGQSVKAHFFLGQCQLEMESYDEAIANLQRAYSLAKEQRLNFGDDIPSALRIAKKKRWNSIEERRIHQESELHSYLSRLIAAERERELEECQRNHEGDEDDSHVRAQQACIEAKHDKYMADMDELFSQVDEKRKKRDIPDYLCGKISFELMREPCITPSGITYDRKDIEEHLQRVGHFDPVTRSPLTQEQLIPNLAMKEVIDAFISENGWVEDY
Experiment: co-IP; co-IP with an HA antibody; cells not given
Details: remark: other sources report otherwise

B1: Bcl2-associated athanogene 2 (BAG2), O95816 1-211 (protein)
chain: MAQAKINAKANEGRFCRSSSMADRSSRLLESLDQLELRVEALREAATAVEQEKEILLEMIHSIQNSQDMRQISDGEREELNLTANRLMGRTLTVEVSVETIRNPQQQESLKHATRIIDEVVNKFLDDLGNAKSHLMSLYSACSSEVPHGPVDQKFQSIVIGCALEDQKKIKRRLETLLRNIENSDKAIKLLEHSKGAGSKTLQQNAESRFN
  binding: binds
